In article PMC10722540, “Red Wine Inspired Chemistry: Hemisynthesis of Procyanidin Analogs and Determination of Their Protein Precipitation Capacity, Octanol–Water Partition, and Stability in Phosphate-Buffered Saline” (Journal of Agricultural and Food Chemistry, 2023):

Experiment: Octanol–water partition, shake-flask method
Format: physicochemical
Details: sum of areas in both phases / area of initial water phase; SE in parentheses
Procedure: The shake-flask method was done using 2 mL Eppendorf tubes and three replicates. […] After mixing, aliquots of 500 μL were transferred to new Eppendorf tubes, and 500 μL of n-octanol was added that had been saturated with water. The solvent systems were mixed in a vortex mixer for 2 h, and then both the water and the n-octanol layers as well as the initial water solution were analyzed by UPLC–DAD using the shorter phenyl column (section 2.4). The chromatograms were integrated using TargetLynx software (version 4.2), and the octanol–water partition coefficient, log P, was calculated as the log10 of the ratio of area in n-octanol phase to the area in water phase. Recovery % was calculated by summing the areas in both phases and dividing the summation with the area measured from the initial water phase.

**Q.** For `Oc1ccc([C@H]2Oc3c(Cc4c(O)cc(O)c5c4O[C@H](c4ccc(O)c(O)c4)[C@H](O)C5)c(O)cc(O)c3C[C@H]2O)cc1O` [Compound 2, Epicatechin–methylene–epicatechin], which “recovery (%)” value is on record?
**A.** The value was 95.9 (0.7) %.

**Q.** With `O=C(O[C@@H]1Cc2c(O)cc(O)cc2O[C@@H]1c1cc(O)c(O)c(O)c1)c1cc(O)c(O)c(O)c1` [Compound 14, Epigallocatechin-3-gallate, reference compound] as the molecule, how does the “recovery (%)” value read?
**A.** Its value is 94.3 (0.6) %.

**Q.** With `Oc1cc(O)c2c(c1)O[C@H](c1ccc(O)c(O)c1)[C@H](O)[C@H]2c1c(O)cc(O)c2c1O[C@H](c1ccc(O)c(O)c1)[C@H](O)C2` [Compound 12, PC B2, reference compound] as the molecule, how does the “recovery (%)” value read?
**A.** Its value is 94.3 (0.6) %.

**Q.** Which “recovery (%)” value does the source give for `Oc1ccc([C@H]2Oc3c(c(O)cc(O)c3C(c3ccco3)c3c(O)cc(O)c4c3O[C@H](c3ccc(O)c(O)c3)[C@@H](O)C4)C[C@@H]2O)cc1O` [Compound 5, Catechin–furanmethine–catechin] here?
**A.** Its value is 90.9 (0.8) %.

**Q.** With `O=C(O)C(c1c(O)cc(O)c2c1O[C@H](c1ccc(O)c(O)c1)[C@H](O)C2)c1c(O)cc(O)c2c1O[C@H](c1ccc(O)c(O)c1)[C@H](O)C2` [Compound 4, Epicatechin–carboxymethine–epicatechin] as the molecule, how does the “recovery (%)” value read?
**A.** Its value is 97.7 (0.0) %.

**Q.** For `Oc1ccc(C(c2c(O)cc(O)c3c2O[C@H](c2ccc(O)c(O)c2)[C@@H](O)C3)c2c(O)cc(O)c3c2O[C@H](c2ccc(O)c(O)c2)[C@@H](O)C3)cc1O` [Compound 7, Catechin–catecholmethine–catechin], which “recovery (%)” value is on record?
**A.** Its value is 96.9 (0.4) %.

**Q.** For `Oc1cc(O)c2c(c1)O[C@H](c1ccc(O)c(O)c1)[C@@H](O)[C@@H]2c1c(O)cc(O)c2c1O[C@H](c1ccc(O)c(O)c1)[C@@H](O)C2` [Compound 11, PC B3, reference compound], which “recovery (%)” value is on record?
**A.** Its value is 97.4 (0.1) %.

**Q.** With `Oc1ccc([C@H]2Oc3c(c(O)cc(O)c3C(c3ccco3)c3c(O)cc(O)c4c3O[C@H](c3ccc(O)c(O)c3)[C@H](O)C4)C[C@H]2O)cc1O` [Compound 6, Epicatechin–furanmethine–epicatechin] as the molecule, how does the “recovery (%)” value read?
**A.** Its value is 94.6 (0.3) %.

**Q.** Which “recovery (%)” value does the source give for `Oc1cc(O)c2c(c1)O[C@H](c1ccc(O)c(O)c1)[C@H](O)[C@H]2c1c(O)cc(O)c2c1O[C@H](c1ccc(O)c(O)c1)[C@H](O)[C@H]2c1c(O)cc(O)c2c1O[C@H](c1ccc(O)c(O)c1)[C@H](O)C2` [Compound 13, PC C1, reference compound] here?
**A.** Its value is 97.6 (0.0) %.

**Q.** With `Oc1ccc([C@H]2Oc3c(Cc4c(O)cc(O)c5c4O[C@H](c4ccc(O)c(O)c4)[C@@H](O)C5)c(O)cc(O)c3C[C@@H]2O)cc1O` [Compound 1] as the molecule, how does the “recovery (%)” value read?
**A.** Its value is 94.7 (0.6) %.

**Q.** With `O=C(O)C(c1c(O)cc(O)c2c1O[C@H](c1ccc(O)c(O)c1)[C@@H](O)C2)c1c(O)cc(O)c2c1O[C@H](c1ccc(O)c(O)c1)[C@@H](O)C2` [Compound 3] as the molecule, how does the “recovery (%)” value read?
**A.** Its value is 97.6 (0.2) %.

**Q.** For `Oc1ccc(C(c2c(O)cc(O)c3c2O[C@H](c2ccc(O)c(O)c2)[C@H](O)C3)c2c(O)cc(O)c3c2O[C@H](c2ccc(O)c(O)c2)[C@H](O)C3)cc1O` [Compound 8, Epicatechin–catecholmethine–epicatechin], which “recovery (%)” value is on record?
**A.** The value was 96.4 (0.4) %.

Same assay, conditions: tentative values, experiment shorter than two hours because the compounds degraded

**Q.** With `Oc1ccc([C@H]2Oc3c(c(O)cc(O)c3C(c3cc(O)c(O)c(O)c3)c3c(O)cc(O)c4c3O[C@H](c3ccc(O)c(O)c3)[C@H](O)C4)C[C@H]2O)cc1O` [Compound 10] as the molecule, how does the “recovery (%)” value read?
**A.** Its value is 107.3 (0.7) %.

**Q.** With `Oc1ccc([C@H]2Oc3c(c(O)cc(O)c3C(c3cc(O)c(O)c(O)c3)c3c(O)cc(O)c4c3O[C@H](c3ccc(O)c(O)c3)[C@@H](O)C4)C[C@@H]2O)cc1O` [Compound 9] as the molecule, how does the “recovery (%)” value read?
**A.** The value was 99.4 (1.2) %.
